Reference: patent US20240092941A1 (FRED HUTCHINSON CANCER CENTER, published 2024)
These are yes or no findings as the source states them, for the method shown. Some entries that bind do so weakly or less than the wild type.

By UniProt entry, the sequences of proteins in these tests, tags left out. Where a name states a change or a piece, a line headed by the entry shows the natural chain unless it says otherwise. Residues count along the entry.
UniProt Q01973: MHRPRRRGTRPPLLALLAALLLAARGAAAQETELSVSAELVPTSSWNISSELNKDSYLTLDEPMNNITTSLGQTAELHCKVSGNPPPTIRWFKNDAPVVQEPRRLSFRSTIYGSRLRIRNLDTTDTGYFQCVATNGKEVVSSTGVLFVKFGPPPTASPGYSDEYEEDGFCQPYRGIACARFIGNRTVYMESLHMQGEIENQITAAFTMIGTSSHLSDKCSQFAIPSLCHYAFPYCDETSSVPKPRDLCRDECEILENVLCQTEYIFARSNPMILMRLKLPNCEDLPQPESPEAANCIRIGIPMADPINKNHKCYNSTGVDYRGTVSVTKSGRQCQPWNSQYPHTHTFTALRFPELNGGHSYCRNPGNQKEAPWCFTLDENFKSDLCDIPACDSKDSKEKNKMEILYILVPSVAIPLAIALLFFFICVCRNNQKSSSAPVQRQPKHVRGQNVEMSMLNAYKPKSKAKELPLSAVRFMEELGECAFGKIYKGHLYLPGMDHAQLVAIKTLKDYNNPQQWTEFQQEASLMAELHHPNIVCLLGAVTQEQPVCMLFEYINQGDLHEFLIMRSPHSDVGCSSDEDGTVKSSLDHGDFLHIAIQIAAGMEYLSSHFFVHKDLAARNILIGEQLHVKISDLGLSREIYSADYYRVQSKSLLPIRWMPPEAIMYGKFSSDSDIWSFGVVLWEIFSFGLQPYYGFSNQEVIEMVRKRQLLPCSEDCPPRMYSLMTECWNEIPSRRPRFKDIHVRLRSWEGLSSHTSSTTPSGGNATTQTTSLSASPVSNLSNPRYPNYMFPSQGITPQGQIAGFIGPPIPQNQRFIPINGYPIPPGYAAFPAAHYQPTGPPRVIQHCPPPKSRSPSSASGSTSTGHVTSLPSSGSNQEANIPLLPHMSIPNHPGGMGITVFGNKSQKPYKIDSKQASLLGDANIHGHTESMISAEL
endogenously expressed ROR1: residues 30-937 of Q01973
ROR1 Kringle fragment: residues 312-391 of Q01973

Legend:
[1] = target: endogenously expressed ROR1 (UniProt Q01973); assay: staining of cancer cell lines (FIG. 1D)
[2] = target: T1, soluble ROR1 ectodomain (UniProt Q01973 30-406, limits assumed); assay: size exclusion chromatography of the complex
T1 construct: extracellular domain

[3] = target: ROR1 Kringle fragment (UniProt Q01973); assay: Superdex 200 SEC: Nb14 complex against free Nb14 and free Kringle fragment
[4] = target: T1, soluble ROR1 ectodomain; assay: ranking of affinity; FIG. 2 gives surface display with ROR1-A647 and Kd by Carterra
[5] = target: ROR1 Kringle fragment (UniProt Q01973); assay: Superdex 200 SEC: Nb11 complex against free Nb11 and free Kringle fragment

| Binder | binding [1] | binding [2] | binding [3] | binding [4] | binding [5] |
| --- | --- | --- | --- | --- | --- |
| Nb14 WT (VHH) VHH: QVKLVQSGGGLVQTGGSLRLSCAASEITFDMYSMGWYREAPGKARDAVASITNRGNTYYADSVKGRFTISRDNAKKTMYLQMNSLKPEDTAVYYCNVYRTGFSDYWGQGTQVTVSS | binds | binds | binds | – | – |
| huNb14 Hi2 (VHH) VHH: QVKLVQSGGGLVQTGGSLRLSCAASGITFDMYSMGWYRQAPGKGLEAVASITNRGNTYYADSVKGRFTISRDNAKNTLYLQMNSLRPEDTAVYYCNVYRTGFSDYWGQGTLVTVSS | – | – | – | binds | – |
| huNb14 Mid1 (VHH) VHH: QVQLVQSGGGLVQTGGSLRLSCAASGITFDMYSMGWFRQAPGKGLDAVASITNRGNTYYADSVKGRFTISRDNAKNTLYLQMNSLRAEDTAVYYCNVYRTGFSDYWGQGTLVTVSS | – | – | – | binds | – |

Results, then the binder that gave them:

| binding [1] | binding [2] | binding [3] | binding [4] | binding [5] | Binder |
| --- | --- | --- | --- | --- | --- |
| – | – | – | binds | – | huNb14 Lo1 (VHH) VHH: QVQLVQSGGGLVQPGGSLRLSCAASGITFDMYSMGWYREAPGKGLEAVASITNRGNTYYADSVKGRFTISRDNAKNTLYLQMNSLRAEDTAVYYCAVYRTGFSDYWGQGTLVTVSS |
| binds | binds | – | – | binds | Nb11 WT (VHH) VHH: QVKLVQSGGGLVQAGGSLRLSCAASGSIFSSASMGWYRQAPGKPREQVASITRDGNTYYEDDVKGRFTISRDNARSTGYLQMNSLTPEDTGVYYCNVYQLGFYDKWGQGTQVIVSS |
